Binding data for one substance are collected here from paper PMC6449437.

By UniProt entry, the sequences of proteins in these tests, tags left out.
UniProt Q64669: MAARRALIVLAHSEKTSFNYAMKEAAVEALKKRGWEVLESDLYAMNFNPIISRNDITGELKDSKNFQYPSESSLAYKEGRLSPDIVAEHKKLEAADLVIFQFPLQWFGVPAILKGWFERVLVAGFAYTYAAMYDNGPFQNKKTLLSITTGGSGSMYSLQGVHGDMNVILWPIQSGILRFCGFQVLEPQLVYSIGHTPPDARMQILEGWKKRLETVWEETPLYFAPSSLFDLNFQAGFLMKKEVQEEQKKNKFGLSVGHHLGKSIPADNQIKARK
UniProt Q80XI3: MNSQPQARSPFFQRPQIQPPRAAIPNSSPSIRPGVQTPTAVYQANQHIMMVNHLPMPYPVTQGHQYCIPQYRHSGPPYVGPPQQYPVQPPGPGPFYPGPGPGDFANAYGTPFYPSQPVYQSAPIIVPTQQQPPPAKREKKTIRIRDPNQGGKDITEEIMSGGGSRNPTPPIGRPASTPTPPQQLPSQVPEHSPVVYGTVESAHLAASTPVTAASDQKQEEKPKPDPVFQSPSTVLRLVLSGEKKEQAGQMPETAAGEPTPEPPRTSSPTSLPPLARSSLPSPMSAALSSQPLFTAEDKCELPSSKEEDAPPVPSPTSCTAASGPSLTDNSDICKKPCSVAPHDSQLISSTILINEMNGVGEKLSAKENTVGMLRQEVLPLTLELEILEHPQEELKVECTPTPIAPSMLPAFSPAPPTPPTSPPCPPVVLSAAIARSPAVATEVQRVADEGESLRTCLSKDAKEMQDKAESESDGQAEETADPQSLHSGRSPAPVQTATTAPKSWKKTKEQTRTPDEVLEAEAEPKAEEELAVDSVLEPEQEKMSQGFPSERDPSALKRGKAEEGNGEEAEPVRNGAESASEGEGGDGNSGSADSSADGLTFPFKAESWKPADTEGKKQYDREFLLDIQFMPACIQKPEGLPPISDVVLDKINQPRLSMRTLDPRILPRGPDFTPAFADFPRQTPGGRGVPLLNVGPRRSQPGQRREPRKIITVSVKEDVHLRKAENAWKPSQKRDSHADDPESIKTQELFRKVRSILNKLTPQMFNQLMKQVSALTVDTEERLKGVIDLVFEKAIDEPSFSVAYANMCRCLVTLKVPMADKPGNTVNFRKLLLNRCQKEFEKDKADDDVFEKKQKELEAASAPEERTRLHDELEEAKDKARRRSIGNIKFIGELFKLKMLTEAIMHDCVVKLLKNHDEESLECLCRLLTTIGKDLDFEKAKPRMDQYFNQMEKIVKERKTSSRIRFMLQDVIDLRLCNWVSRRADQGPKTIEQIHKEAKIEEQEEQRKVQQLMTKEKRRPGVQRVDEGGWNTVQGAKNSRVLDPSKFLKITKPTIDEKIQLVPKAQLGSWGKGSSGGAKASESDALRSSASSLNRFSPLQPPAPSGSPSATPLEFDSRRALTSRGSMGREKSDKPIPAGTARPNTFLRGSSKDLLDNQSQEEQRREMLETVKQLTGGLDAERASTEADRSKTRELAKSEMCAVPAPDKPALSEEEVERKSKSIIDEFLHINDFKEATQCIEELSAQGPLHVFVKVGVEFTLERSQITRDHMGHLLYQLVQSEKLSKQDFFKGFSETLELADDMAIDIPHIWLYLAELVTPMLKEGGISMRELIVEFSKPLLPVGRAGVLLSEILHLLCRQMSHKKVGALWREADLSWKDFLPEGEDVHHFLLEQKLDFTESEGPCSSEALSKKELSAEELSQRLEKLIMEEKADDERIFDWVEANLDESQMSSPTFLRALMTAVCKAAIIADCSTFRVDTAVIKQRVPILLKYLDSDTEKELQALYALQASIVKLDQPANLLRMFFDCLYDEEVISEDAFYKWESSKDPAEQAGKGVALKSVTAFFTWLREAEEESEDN

Results are given in words; binding and its absence hold for the method and conditions named. Binding seen in cells or lysates may run through a third protein. Some results given as binding are weak or reduced against the parent protein; the word gives no strength.

The experiment has as its target NQO1 [NAD(P)H:quinone oxidoreductase] (mouse (endogenous in NIH-3T3)) (UniProt Q64669). The experiment in a line: co-IP; extracts of NIH-3T3 cells either untransfected or transfected with NQO1 cDNA, immunoprecipitation with anti-NQO1 antibodies, western blot with the indicated antibodies. Background: In western blotting, separated proteins are transferred to a membrane and probed.

For “eukaryotic mRNA translation initiation factor 4GII (eIF4GII) (from UniProt Q80XI3 1-1579)”, the binding entry is recorded as “binds”.
